Laboratory results: a protein production outcome set (Wang et al. 2014)

test: label from the status in PepcDB records

Sequence | protein production
DEKVQNSKTRFIAVSSGKGGVGKSNIAIGLALKYSELGKKVLILDADIGMANVNILLGVIPKYSIYHMIAQSRDIREVITKTEYNIDLLAGASGTMELLDLSDVDVNKFIKELLKIYEYDIVVIDTSAGISRQVISFLLSSDDVVIVTTPEPTSITDAYGIIKVLSYKMENLKNLRLIVNRVANVSEAKGVAKKVIDISGQFLNLNIDYLGHIYEDQNIRSSVFKQKPFVLVNPNSKASYCLDSIVATLEEVSLDNRKRRGVIGFILRFF | failed
EGGERRRRRREQAAGGAGGEGRSGSAGGSGGGRWRYGVESQPRQATLRWSEAVETRSTQGSTGNPGFEEGVAGPGGGEGAMLEAMAEPRPEDPPPTLKPETQPPEKRRRTIEDFNKFCSFVLAYAGYIPPSKEESDWPASGSSSPLRGESAADSDGWDSAPSDLRTIQTFVKKAKSSKRRAVQSGPTQPGPPRSTFSRLQAPDSATLLEKMKLKDSLFDLDGPKVASPLSPTSLTHTSRPPAALAPVPLSQGDLSQPRKKDRKNRKLGPGGGAGFGVLRRPRPAPGDGEKRSRIKKSKKRKLKKADRGDRLPPPGPPRAPPSDTDSEEEEEEEEEEDDEEEMTVGGGVPAPVLPTPPEAPRPPVTVHSEGAPPTDSEGKDVGSTETSQDGDASSSEGEMRVMDEDIMVESGDDSWDLITCYCRKPFAGRPMIECSLCGTWIHLSCAKIKKTNVPDFFYCQKCKELRPEARRLGGLPKSGEP | not failed
ERLTLDTRLRQALERNELVLHYQPIVELASGRIVGGEALVRWEDPERGLVMPSAFIPAAEDTGLIVALSDWVLEACCTQLRAWQQQGRAADDLTLSVNISTRQFEGEHLTRAVDRALARSGLRPDCLELEITENVMLVMTDEVRTCLDALRARGVRLALDDFGTGYSSLSYLSQLPFHGLKIDQSFVRKIPAHPSETQIVTTILALARGLGMEVVAEGIETAQQYAFLRDRGCEFGQGNLMSTPQAADAFASLLDRQKASGQRPVHGHETAP | not failed
LIACVANDDVFSESETRAKFESLFRTYDKDTTFQYFKSFKRVRINFSNPLSAADARLRLHKTEFLGKEMKLYFAQTLHIGSSHLAPPNPDK | not failed
LIDSREQYRLAVNGSNDGIWDWDMRSDTLYLSPKWKKTLGYEDDDLSNIYKTFEDLVHPEDKPVFRTYLDRYLNGEIPLFNIEFRIRHKDGAYVWILGRGEVLRDKSGSPYRMAGSMSDITGRKKDEDELKRRSAFQLVVMDLAIGFVNTPLDELDRSIERALALVGEFLQVDRSYLFRYDFANGTMSNTHEWCSEGIAPEKNNLQNLLNSIIPDWVATHLAGRIVHISSVDALDDESALKMILASQGIKTLISLPLIYHEHCFGFVGFDAVREVKKWGDDEISLLRVLAELFTNAELRFRHETALVDARYAAESANRAKSEFLANMSHEIRTPMNGVIGMA | failed
MAAGKTFYDILGVSKSASDKEIKSAFRKLAQKYHPDAGGDEAKFKEISEAYETLSDEKKRKEYDQMLMFGGMPGAGGAYGGGYGAGAGASGWGDIFDSIFSGNGAWGSDWGSGFAGAAGAAGAGAGRSRARKGGDLSLTVDVSAEDAFRGVTHKVTYRIPSTGEQQTITVSVPAGAVDGGKLRYKRRGEYGVAGGERGDLVVTTHVEEHPLFKRKGADVTMEVPVSVYEAALGCTVDVPTPGGATVRLKVPAGTQTGKKFRFKEMGAPDVKHRGRTGALLVEIKVQVPTNLSDDERDAMTKLREADTRDYREKVNRYKATY | failed
MAFISSGYNPEKPMANRITDIGPRKFDEFFPPVIAKNFGSWLYHEILEPGVLMHVAESGDKVYTVRVGAARLMSITHIREMCDIADKYCGGHLRFTTRNNVEFMVADEASLKALKEDLASRKFDGGSLKFPIGGTGAGVSNIVHTQGWVHCHTPATDASGPVKAIMDEVFEDFQSMRLPAPVRISLACCINMCGAVHCSDIGVVGIHRKPPMIDHEWTDQLCEIPLAVASCPTAAVRPTKLEIGDKKVNTIAIKNERCMYCGNCYTMCPALPISDGEGDGVVIMVGGKVSNRISMPKFSKVVVAYIPNEPPRWPSLTKTIKHIIEVYSANAYKYERLGEWAERIGWERFFSLTGLEFSHHLIDDFRDPAYYTWRQSTQFKFLEHHHHHH | failed
MAITVASSRLGTAPFSNAAPVELRPDGDRDQVQAVIRAVYRQVLGNDYIMKSERLTAAESLLVNGSISVRDFVRAVAKSELYKTKFFYNNFQTRVIELHCKHLLGRAPYSEAEVIEHLDRYETQGYDADVDSYIDSSEYLETFGESIVPYYRDIEYHVGQQSVGLPRLFSLYRGYATSDRTSLGGNNSRLAANLAAKSVAPVVAPSVGTNYVASTKGEAPMRALGGSTPFGQTASRIFRVEIAAISKPGFPSVRRSNRSLLVPYEQLNNTLQQVNRSGGRVVSVAPASL | failed
MEEKDWEASSSSENEGGFPNDDDEEFHSGGSVPKLQFRVGSSKARWITELGMAEVEVKRGKLWTTTGIIRSGKTYCFIEEALYLSEIGELQILGNEDDIVIPLKDLYEKIAEEKSVALGKTTRHGVSWTLKDAARPNGEEESACAGECPADNDTVTKLLGDMQICDAKAVFDVYLPNSRFKKSSPGEPSFVACFSGDSPPSKEDIKVLQKRIAAPLTFCHIAQGRASFFSFSSIDLPVLS | failed
MERTQIFDLMGELKLYGMKAAFDEIMATAVKRQHEPQRIVGDLLSAEINEKQARSIKYQLTIAKLPLAKDIADFQFDGTPINQTLVNDLAGGGFVAQQRNVVLVGGTGTGKTHLAIAIARSCIRSGARGRFFNVVDLVNRLETETRNGRQGRLAEHLTRMDFIVLDELGYLPFAQSGGQLLFHLVSRLYERASVIVTTNLAFGEWPSVFGDAKMTTALLDRLTHHCDIVETGNDSWRFKSRDDDHATRARLASAIPASSDETSATSKPRRGKGSKLDADEGSNLQAD | failed
MGKIMPVSNTKPSLQRQIKTMIRSSVQTAQKLPLRLILVVPFVLQIFTAVSLVGYLSFKNGQKAVNELADQLIVKVNGLVDQHLDSYLAAPLQINQINVDATNLGMLNLENFQTTGRYFWQQMQVFNVGYISFANLQGEFIGVERLDKGGLLINEVSQKNGIGKLYVYTTNNQGDRQQLIAVKDYDPHVEAWYADAVKAGKPVWSQIYSWEDKPEVLSISASYPINDNNNKFFGVISVDLILSQINSFLANLKVGQTGQIFILERSGMIVASSTSEAPYKVISGKAQRLSAHQSQNYLLRETTDYLQQKFGQLKNVKSYQQTVLQLQHERHFVQVRPWNDKLGLDWLVIVVVPESDFMGQINTNNRTTILLCLWALIIATAMGVYTSRWIARPIVQLTQASSAIASGNLDQEVRVSGLKELSTLATSFNQMAGQLRDSFAELEKTNQELENRVAERTAEITAAKEVADAANRAKSEFLANMSHELRTPLNGILGYAQILQLDSNTNDEQMQGLNTIYECGSHLLTLINDILDIAKIEAKKLELYPQEFDLGRLLLGVCEMCHIKVEQKGISFKYQFNDYIPSKTFADEKRIRQVLINILSNAIKFTDNGTVTFDVEVVACTGTKLITNTNQILPVHQLRFQIEDTGIGMTDEQLKKIFLPFEQVGDNLHKSEGTGLGLAISSQILELMGSDIKVESVYGKGTKFWFDLDLPIIDTGKISLSVESQKNIIGYEGKTKSILIIDSSWEKRDIFANLLSSLGFKLTEVSNLQESLDKIKAEHPDLIIADIAMPEINNLQATTMMRSQVEFAKLVIIASSASVSEYTRQQSQEAGYDDFLAKPVKVEDLFNMLQTYLSLKWIYSPNDDSSAKISSIEEIIFPPPTELVNLYQAAKAGYVVGIQEEITRIQQLDKKYTRFTVKVSELIAEFEDEAIVSMIQPHLSY | failed
MGKKKKRATEKVWCYYCDREFDDEKILVQHQKAKHFKCHVCHKKLSTASGMVIHVLQVHKENVTKVPNAKDGRDSTDIEIYGMQGIPPHVLTAHYGEEEDEPPAKVAKVEIPSAPLGGVVPRPYGMVYPPQQVPGAVPARPMYYPGPPMRHPAPVWQMPPPRPQQWYPQNPALSVPPAAHLGYRPQPLFPVQNMGMTPTPTSAPAIQPSPVTGVTPPGIPTSSPAMPVPQPLFPVVNNSIPSQAPPFSAPLPVGGAQQPSHADALGSADAYPPNNSIPGSIPSGTNAHSYASGPNTSGPSIGPPPVIANKAPSNQPNEVYLVWDDEAMSMEERRMSLPKYKVHDETSQLAIVGSEKHSMNSINAAIDRRISESRLAGRMAF | failed
MGPRASLSRLRELCGHWLRPALHTKKQILELLVLEQFLSVLPPHLLGRLQGQPLRDGEEVVLLLEGIHREPSHAGPLDFSCNAGKSCPRADVTLEEKGCASQVPSHSPKKELPAEEPSVLGPSDEPPRPQPRAAQPAEPGQWRLPPSSKQPLSPGPQKTFQALQESSPQGPSPWPEESSRDQELAAVLECLTFEDVPENKAWPAHPLGFGSRTPDKEEFKQEEPKGAAWPTPILAESQADSPGVPGEPCAQSLGRGAAASGPGEDGSLLGSSEILEVKVAEGVPEPNPELQFICADCGVSFPQLSRLKAHQLRSHPAGRSFLCLCCGKSFGRSSILKLHMRTHTDERPHACHLCGHRFRQSSHLSKHLLTHSSEPAFLCAECGRGFQRRASLVQHLLAHAQDQKPPCAPESKAEAPPLTDVLCSHCGQSFQRRSSLKRHLRIHARDKDRRSSEGSGSRRRDSDRRPFVCSDCGKAFRRSEHLVAHRRVHTGERPFSCQACGRSFTQSSQLVSHQRVHTGEKPYACPQCGKRFVRRASLARHLLTHGGPRPHHCTQCGKSFGQTQDLARHQRSHTGEKPCRCSECGEGFSQSAHLARHQRIHTGEKPHACDTCGHRFRNSSNLARHRRSHTGERPYSCQTCGRSFRRNAHLRRHLATHAEPGQEQAEPPQECVECGKSFSRSCNLLRHLLVHTGARPYSCTQCGRSFSRNSHLLRHLRTHARETLY | not failed
MIFQNVCRNESNFNAIASESRSQTQFGVSKSSSSGGGCISARTKDRHTKVNGRSRRVTMPALAAARIFQLTRELGHKTEGETIEWLLSQAEPSIIAATGYGTKLISNWVDVAADDSSSSSSMTSPQTQTQTPQSPSCRLDLCQPIGIQYPVNGYSHMPFTAMLLEPMTTTAESEVEIAEEEERRRRHH | failed
MKQISSGEVWRWNKEVEMNSIRDCLKHCSSIAIDTEFPGCLKETPMDASEEIRYRDMKFNVDNTHLIQLGFTLFDRRGFAKTWEINLSDFDEHKCFKNDKSIAFLKSNGLNLDKIREEGIGIDEFFRDFSQILTEKDGKITWVNFQGSYDNAYLVKGLTGGKPLPETKEEFHETVQQLLGKFVFDVKKIAESCSGLSSQFGLQRIADVLQMKRVGKAHHAGSDSELTARVFTKLTFDLLNSRKQSVRRVDHQQFQLEQQQHQQFMMTRCYIPIPMPIPRPRPVMFAAHHQNPYFGGGYFRMPVQGMNYVL | failed
MNGEYRGRGFGRGRFQSWKRGRGGGNFSGKWREREHRPDLSKTTGKRTSEQTPQFLLSTKTPQSMQSTLDRFIPYKGWKLYFSEVYSDSSPLIEKIQAFEKFFTRHIDLYDKDEIERKGSILVDFKELTEGGEVTNLIPDIATELRDAPEKTLACMGLAIHQVLTKDLERHAAELQAQEGLSNDGETMVNVPHIHARVYNYEPLTQLKNVRANYYGKYIALRGTVVRVSNIKPLCTKMAFLCAACGEIQSFPLPDGKYSLPTKCPVPVCRGRSFTALRSSPLTVTMDWQSIKIQELMSDDQREAGRIPRTIECELVHDLVDSCVPGDTVTITGIVKVSNAEEGSRNKNDKCMFLLYIEANSISNSKGQKTKSSEDGCKHGMLMEFSLKDLYAIQEIQAEENLFKLIVKWSLALSPRLEYSGAISAHCNLHLPSSNSSPTSACRVAGTTGMRHQTQLLLLVKAGLALALFGGSQKYADDKNRIPIRGDPHILVVGDPGLGKSQMLQAACNVAPRGVYVCGNTTTTSGLTVTLSKDSSSGDFALEAGALVLGDQGICGIDEFDKMGNQHQALLEAMEQQSISLAKAGVVCSLPARTSIIAAANPVGGHYNKAKTVSENLKMGSALLSRFDLAFILLDTPNEHHDHLLSEHVIAIRAGKQRTISSATVARMNSQDSNTSVLEVVSEKPLSERLKVVPGETIDPIPHQLLRKYIGYARQYVYPRLSTEAARVLQDFYLELRKQSQRLNSSPITTRQLESLIRLTEARARLELREEATKEDAEDIVEIMKYSMLGTYSDEFGNLDFERSQHGSGMSNRSTAKRFISALNNVAERTYNNIFQFHQLRQIAKELNIQVADFENFIGSLNDQGYLLKKGPKVYQLQTM | failed
